From patent US12704506B2, “Microbial analysis without cell purification” (First Light Diagnostics, Inc., priority 2018, dated 2026)
At least one structure is not confirmed: it was looked up by name or label, or the drawing left a doubt.

Tested on: E. coli
Assay: rapid AST MIC testing of polymicrobial specimens, Example A
Format: cell-based
Details: in the presence of 1E7 CFU/mL carbapenemase secreting K. pneumoniae NDM1

## C[C@@H](O)[C@H]1C(=O)N2C(C(=O)O)=C(SCCN=CN)C[C@H]12 [Imipenem]
  E. coli MIC, effect of off-target bacteria: unaffected
